Laboratory results reported in patent US7405201B2 (Bayer Healthcare AG, priority 2001, dated 2008).

Test: general procedure: solution-phase peptide synthesis; TPTU/HOBT/ethyldiisopropylamine; HATU/ethyldiisopropylamine; EDC/pentafluorophen
Conditions: coupling step
In the case of “3-Cyclohexyl-2-propenoic acid [(S)-2-(3,5-difluorophenyl)-1-((3S,9S,13S,15R,19S,22S)-15,19-Dimethyl-2,8,12,18,21-pentaoxo-11-oxa-1,7,17,20-tetraaza-tetracyclo [20.4.0.0^3,7.0^13,17] hexacos-9-ylcarbamoyl)-ethyl]-amide”, the step yield is reported as 44% of th.
For “tert-Butyl (S)-2-{1-[(S)-2-((S)-2-{(2S,4R)-2-[(S)-2-benzyloxycarbonylamino-2-(2-oxo-2-phenylethoxycarbonyl)-ethoxycarbonyl]-4-methyl-pyrrolidin-1-yl}-1-methyl-2-oxo-ethylcarbamoyl)-piperidin-1-yl]-methanoyl}-pyrrolidine-1-carboxylate”, the step yield was 71% of th.
In the case of “tert-Butyl [(S)-2-(3,5-difluorophenyl)-1-((3S,7S,13S,16S,19S)-13,16,17-trimethyl-2,6,12,15,18-pentaoxo-5-oxa-1,11,14,17-tetraaza-tricyclo[17.3.0.0^7,11]docos-3-ylcarbamoyl)-ethyl]-carbamate”, the step yield is reported as 57% of th.
With “tert-Butyl [(S)-2-(3,5-difluorophenyl)-1-((3S,9S,13S,15R,19S,22S)-15,19-dimethyl-2,8,12,18,21-pentaoxo-11-oxa-1,7,17,20-tetraaza-tetracyclo-[20.4.0.0^3,7.0^13,17]hexacos-9-ylcarbamoyl)-ethyl]-carbamate” the step yield was 97% of th.
With “tert-Butyl (S)-2-{[(S)-1-((S)-2-{(S)-2-[(S)-2-benzyloxycarbonylamino-2-(2-oxo-2-phenyl-ethoxycarbonyl)-ethoxycarbonyl]-pyrrolidin-1-yl}-1-methyl-2-oxo-ethylcarbamoyl)-ethyl]-methyl-carbamoyl}-pyrrolidine-1-carboxylate” the step yield was 83% of th.

Same assay, conditions: cyclisation step
For “Benzyl ((3S,9S,13S,15R,19S,22S)-15,19-dimethyl-2,8,12,18,21-pentaoxo-11-oxa-1,7,17,20-tetraaza-tetracyclo[20.4.0.0^3,7.0^13,17]hexacos-9-yl)-carbamate”, the cyclisation yield was 60% of th.

Same assay, conditions: late stage modification step
With “3-Cylcohexylpropanoic acid [(S)-2-(3,5-difluorophenyl)-1-((3S,9S,13S,15R,19S,22S)-15,19-Dimethyl-2,8,12,18,21-pentaoxo-11-oxa-1,7,17,20-tetraaza-tetracyclo[20.4.0.0^3,7.0^13,17] hexacos-9-ylcarbamoyl)-ethyl]-amide” the step yield was 49% of th.
In the case of “(E)-Hept-2-enoic acid [(S)-2-(3,5-difluorophenyl)-1-((3S,7S,13S,16S,19S)-13,16,17-trimethyl-2,6,12,15,18-pentaoxo-5-oxa-1,11,14,17-tetraazatricyclo[17.3.0.0^7,11]docos-3-ylcarbamoyl)-ethyl]-amide”, the step yield is reported as 56% of th.
With “tert-Butyl (S)-2-[1-((S)-2-{(S)-2-[(2S,4R)-2-((S)-2-benzyloxycarbonylamino-2-carboxy-ethoxycarbonyl)-4-methyl-pyrrolidin-1-yl]-1-methyl-2-oxo-ethylcarbamoyl}-piperidin-1-yl)-methanoyl]-pyrrolidine-1-carboxylate” the step yield was 91% of th.
For “tert-Butyl (S)-2-[((S)-1-{(S)-2-[(S)-2-((S)-2-benzyloxycarbonylamino-2-carboxyethoxycarbonyl)-pyrrolidin-1-yl]-1-methyl-2-oxo-ethylcarbamoyl}-ethyl)-methylcarbamoyl]-pyrrolidine-1-carboxylate”, the step yield was 94% of theory.
In the case of “(E)-Hept-2-enoic acid [(S)-2-(3,5-difluorophenyl)-1-((3S,9S,13S,15R,19S,22S)-15,19-Dimethyl-2,8,12,18,21-pentaoxo-11-oxa-1,7,17,20-tetraaza-tetracyclo[20.4.0.0^3,7.0^13,17]hexacos-9-ylcarbamoyl)-ethyl]-amide”, the step yield is reported as 62% of th.

Same assay, conditions: late stage modification step, chloride
In the case of “(3S,9S,13S,15R,19S,22S)-15,19-Dimethyl-2,8,12,18,21-pentaoxo-11-oxa-1,7,17,20-tetraaza-tetracyclo[20.4.0.0^3,7.0^13,17]hexacos-9-yl-ammonium chloride”, the step yield is reported as 98% of th.
For “(3S,7S,13S,16S,19S)-13,16,17-Trimethyl-2,6,12,15,18-pentaoxo-5-oxa-1,11,14,17-tetraaza-tricyclo[17.3.0.0^7,11]docos-3-yl-ammonium chloride”, the step yield was 94% of th.
